Test results taken from ChEMBL document CHEMBL4177706, “Exploiting a water network to achieve enthalpy-driven, bromodomain-selective BET inhibitors” (Bioorg Med Chem, 2018).

Tested on: NALM-6
Test: cells
Conditions: Homo sapiens, NALM-6, 120 h

CCNC(=O)C[C@@H]1N=C(c2ccc(Cl)cc2)c2cc(OC)ccc2-n2c(C)nnc21 [MOLIBRESIB]
EC50: 0.39 µM
